At least one compound was matched to its structure with a doubt left.
Experiment: In vitro release of MMP / gp-130 inhibitors from expanding ECells (RHPLC)
Assay type: physicochemical
Details: 5 mg/g in LOIB:CAB(12 kDa):DMSO (65:5:30), dPBS, 37° C.

For `CNC(=O)[C@H](Cc1ccccc1)NC(=O)[C@H](CC(C)C)[C@H](CSc1cccs1)C(=O)NO` [Batimastat], the “cargo released in vitro after 42 days” value was “about 60%”.

From patent US20260174910A1, “POROUS EXPANDING BIOCOMPATIBLE SCAFFOLDS” (DANMARKS TEKNISKE UNIVERSITET, priority 2022, published 2026)
